Columns and labels:
Settings in all cases: 25 μl injection, estimated for signal to noise ratio of three
[1] = HPLC analysis of acidic tracers (benzene polycarboxylic acids; ion pair reversed phase, UV 215 nm): detection limits
[2] = HPLC procedure for simultaneously analyzing 13 aromatic tracers (ion pair reversed phase, UV 224 nm): detection limits
[3] = HPLC analysis of three basic aromatic tracers (reversed phase, UV 253 nm): detection limits

SMILES | Detection Limit (Multiple Tracer Analysis) [2] [ppb] | further results
O=C(O)c1cc(C(=O)O)c(C(=O)O)cc1C(=O)O [1,2,4,5 Benzene tetracarboxylic acid] |  | Detection Limit (Multiple Acidic Tracer Analysis) [1]: 15 ppb
O=S(=O)(O)c1cccc2c(S(=O)(=O)O)cccc12 [1,5-Naphthalenedisulfonic acid] | 6 | 
O=S(=O)(O)c1cccc2ccccc12 [1-Naphthalene sulfonic acid] | 12 | 
Cc1cccc(C(=O)O)c1C [2,3-Dimethylbenzoic acid, reference compound] | 43 | 
Cc1ccc(S(=O)(=O)O)c(C)c1 [2,4-Dimethylbenzene sulfonic acid] | 36 | 
Cc1ccc(C)c(S(=O)(=O)O)c1 [2,5-Dimethylbenzene sulfonic acid] | 50 | 
O=S(=O)(O)c1ccc2cc(S(=O)(=O)O)ccc2c1 [2,6-Naphthalenedisulfonic acid] | 5 | 
CCc1ccc(C)nc1 [2-Methyl-5-ethylpyridine] |  | Detection Limit (Multiple Basic Tracer Analysis) [3]: 500 ppb
O=S(=O)(O)c1ccc2ccccc2c1 [2-Naphthalene sulfonic acid] | 5 | 
Cc1ccc(C(=O)O)cc1C [3,4-Dimethylbenzoic acid, reference compound] | 60 | 
Nc1ccccc1 [Aniline] |  | Detection Limit (Multiple Basic Tracer Analysis) [3]: 350 ppb
O=C(O)c1cccc(C(=O)O)c1 [Isophthalic acid] |  | Detection Limit (Multiple Acidic Tracer Analysis) [1]: 15 ppb
c1ccncc1 [Pyridine] |  | Detection Limit (Multiple Basic Tracer Analysis) [3]: 200 ppb
O=C(O)c1ccc(C(=O)O)cc1 [Terephthalic acid] |  | Detection Limit (Multiple Acidic Tracer Analysis) [1]: 20 ppb
O=C(O)c1cccc(F)c1 [m-Fluorobenzoic acid, reference compound] | 17 | 
Cc1cccc(C(=O)O)c1 [m-Methylbenzoic acid] | 24 | 
Cc1ccccc1C(=O)O [o-Methylbenzoic acid] | 30 | 
Cc1ccc(C(=O)O)cc1 [p-Methylbenzoic acid] | 18 | 

Reference: patent US5246860A, “Tracer chemicals for use in monitoring subterranean fluids” (Union Oil Company of California, priority 1992, dated 1993)
